This passage reports cell number change and AC50 results from PubChem BioAssay AID2685 (National Center for Advancing Translational Sciences (NCATS), 2010).

This assay in a line: qHTS Assay for Lipid Storage Modulators in Drosophila S3 Cells.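 As to cell number change: cells counted by Cell Tracker Red CMTPX staining in the red channel.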 The following applies: BODIPY lipid droplet fluorescence, 18-24 h; for cell number change: measured here: cell count max response, cells fed with added oleic acid. In outline: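 Laser-scanning cytometry quantifies lipid droplet accumulation (500–530 nm total intensity; droplet/cell object ratio) in oleic acid-fed (400 uM added) Drosophila S3 cells treated with a concentration series. 20 uM Triacsin C defined 100% inhibition.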

Setting [1] is: measured here: lipid fluorescence (Fed channel) AC50, cells fed with added oleic acid.
Where [2] appears, read: measured here: cell number channel AC50, cells fed with added oleic acid.

The other results are listed elsewhere or left out. The main result of the screen is listed elsewhere. These columns were measured beside it and carry no call. Compounds called inactive in the main read-out are mostly missing here. The note in brackets gives the kind of curve behind each potency; many fits are weak.

A word on the AC50: it is the concentration at which the activity in the assay is half-maximal. Low readings indicate greater potency, high ones weaker potency. On to `COc1ccc(CN(CC(=O)NCc2ccc(F)cc2)C(=O)CCC(=O)Nc2ccccn2)cc1`, for which the cell number change was -6.3%. Besides, under setting [1], the AC50 is 6.51 µM [falling, single point].
As to `CCN(CC)CCCNC(=O)C1CCN(c2ncnc3c2sc2cccc(F)c23)CC1`, the cell number change is -10.3%. The AC50 under setting [1] is 0.231 µM [falling, full curve, poor fit].
On to `CC(C)CNC(=O)c1cccc(NC(=O)c2ccco2)c1`, for which the cell number change was 0.852%.
For the molecule `COc1ccc(CC(=O)Nc2nnc(SCC(=O)NCc3ccco3)s2)cc1OC`, the cell number change is -26.2%. The AC50 under setting [1] is 2.06 µM [falling, single point].
Consider `CCCS(=O)(=O)Nc1ccc(-c2cn3c(n2)SCC3)cc1`, for which the cell number change was -14.7%. Further, under setting [2], the half-maximal activity concentration (AC50) was 2.31 µM [rising, single point]. Under setting [1], the AC50 is 0.13 µM [falling, full curve, poor fit].
As to `O=C(CSC1=NC(=O)C(c2ccccc2)C(=O)N1)Nc1ccccc1Cl` (stereo not given), the cell number change was -20%. Further, under setting [1], the half-maximal activity concentration (AC50) was 0.651 µM [falling, full curve].
For the molecule `Cc1nc2ccccc2c2c(N)c3ccccc3n12`, the AC50 by setting is: under setting [2], 6.51 µM [falling, single point]; under setting [1], 6.51 µM [falling, single point].
For `CC(=O)c1ccc(NC(=S)Nc2ccn(Cc3ccc(Br)cc3)n2)cc1`, the cell number change was -47.4%.
For the molecule `Cn1c(SCC(=O)Nc2cc(Cl)cc(Cl)c2)nnc1-c1ccc2nonc2c1`, the cell number change is -34.7%. Further, under setting [2], the AC50 is 14.6 µM [falling, partial curve, poor fit]. Moreover, the concentration at half-maximal activity (AC50) under setting [1] was 8.2 µM [falling, partial curve, poor fit].
Regarding `COc1ccc(N(Cc2ccccc2)S(=O)(=O)c2ccc(C)cc2)cc1`, the cell number change is 108%. Further, the AC50 under setting [2] is 5.8 µM [falling, single point]. Further, under setting [1], the AC50 was 1.84 µM [falling, partial curve].
Consider `Cn1c(=O)oc2cc(S(=O)(=O)Nc3ccc4c(c3)OCCO4)ccc21`, for which the cell number change was determined as 132%. Also, the AC50 under setting [2] was 23.1 µM [rising, partial curve]. Also, under setting [1], the AC50 was 10.3 µM [rising, partial curve].
As for `CC(C)Nc1oc(-c2cccc3ccccc23)nc1C#N`, the cell number change is -4.39%. Moreover, the AC50 under setting [1] is 5.17 µM [falling, full curve].
As for `CC(=O)Nc1ccc(/C(C)=N/NS(=O)(=O)c2ccccc2)cc1`, the cell number change worked out at 4.28%.
On to `COc1cc2ncc(C(=O)c3ccccc3)c(N3CCN(Cc4ccccc4)CC3)c2cc1OC`, for which the cell number change was found to be 22.2%. Moreover, the AC50 under setting [2] is 0.231 µM [rising, full curve, poor fit]. Also, under setting [1], the AC50 was 1.03 µM [rising, full curve, poor fit].
`CCOCCCNC(=O)c1ccc(OC2CCN(C(C)=O)CC2)c(OC)c1`: the cell number change was -16%. Under setting [1], the concentration at half-maximal activity (AC50) is 0.58 µM [falling, single point].
As for `CSc1ccccc1NC(=O)c1ccccc1N(C)S(C)(=O)=O`, the cell number change was determined as 0.787%. Further, the AC50 under setting [1] is 10.3 µM [falling, single point].
On to `CCCCn1c(N)c(N(C)C(=O)C2CCCC2)c(=O)[nH]c1=O`, for which the cell number change is -14.5%. In addition, the AC50 under setting [1] is 0.092 µM [falling, full curve, poor fit].
On to `Cc1ccc(Sc2ccc(NC(=O)CCl)cc2)cc1C`, for which the cell number change was -60.8%. For the same molecule, the AC50 under setting [2] is 29.1 µM [falling, single point]. Besides, the half-maximal activity concentration (AC50) under setting [1] is 23.1 µM [falling, single point].
Take `Cc1nn(-c2ccccn2)c2c1C(=O)C(Br)CC2` (stereo not given): the AC50 under setting [1] was 0.0517 µM [falling, full curve, poor fit].
`C=CCn1c(SCC(=O)c2ccc(OC)cc2)nnc1-c1cc2cccc(OC)c2o1`: the cell number change is -36.2%. For the same molecule, under setting [2], the concentration at half-maximal activity (AC50) is 18.4 µM [falling, partial curve, poor fit].
Consider `CCCc1cc(C(=O)NNC(=S)NCC)c2ccccc2n1`, for which the AC50 under setting [1] is 0.0651 µM [rising, full curve, poor fit].
For `CCOC(=O)CNC(=S)N1CCn2c(nc3ccccc32)C1`, the cell number change was -13.2%. Further, the AC50 under setting [2] is 0.092 µM [falling, full curve, poor fit]. Further, the AC50 under setting [1] is 0.058 µM [falling, full curve, poor fit].
On to `N#CCCN(C(=O)CN1CCN(S(=O)(=O)c2ccc3c(c2)OCCO3)CC1)c1ccc(F)cc1`, for which the cell number change stood at 5.98%. For the same molecule, the AC50 under setting [1] was 0.0651 µM [falling, full curve, poor fit].
In the case of `COc1ccccc1C(=O)NCC(=O)NCc1cc(=O)n(C)c(=O)n1C`, the cell number change was found to be 19.5%.
For `Cc1ccc2nc3c(c(C(=O)OCC(=O)N(C)C4CCS(=O)(=O)C4)c2c1)CCCC3` (stereo not given), the cell number change came out at 25.9%. In addition, the concentration at half-maximal activity (AC50) under setting [1] is 20.6 µM [rising, single point].
Regarding `O=C(CNC(=O)c1ccc(Cl)cc1)OCCN1C(=O)c2ccccc2C1=O`, the cell number change was determined as 6.64%.
Same read-out and setting: the value for `Cc1cc(C)c(-c2cc(NC(=O)COC(=O)c3ccc(NC(=O)CC#N)cc3)n(-c3ccccc3)n2)cc1C` was 5.86%.
As to `CCc1nc(SCC(=O)Nc2ccccc2OC)n[nH]1`, the cell number change is -5.26%. Under setting [1], the AC50 is 0.398 µM [rising, single point].
As for `Cc1sc2nc(C(C)C)oc(=O)c2c1C`, the cell number change is -27%.
As for `CCC(Sc1nc(=O)cc(N)n1-c1ccccc1)C(=O)Nc1cc(C)on1` (stereo not given), the cell number change was -10.7%. In addition, the AC50 under setting [1] was 0.291 µM [falling, full curve, poor fit].
As to `CC(C)C1Oc2ccccc2N(CC(=O)N(Cc2ccccn2)CC2CCCO2)C1=O` (stereo not given), the cell number change was found to be 5.36%.
Take `N#CCCN(C(=O)COC(=O)C1CCN(S(=O)(=O)c2ccc3c(c2)OCCO3)CC1)c1ccccc1`: the cell number change was -12.8%. In addition, the AC50 under setting [1] was 6.51 µM [falling, single point].
As for `CCc1cccc(OCCCn2ccnc2)c1`, the cell number change is -83.3%. The AC50 under setting [2] is 5.17 µM [falling, partial curve].
Consider `CC(C)(C)c1cc(NC(=O)Nc2ccc(Cl)cc2Cl)no1`, for which the cell number change is -38.7%. Further, the half-maximal activity concentration (AC50) under setting [2] is 29.1 µM [falling, single point]. Under setting [1], the AC50 is 29.1 µM [falling, single point].
Turning to `COC(=O)CCN(C(=O)c1cccc([N+](=O)[O-])c1)c1ccccn1`, the cell number change was -14.5%. In addition, the AC50 under setting [2] is 0.517 µM [falling, single point].
In the case of `O=S(=O)(c1ccc(Br)cc1)N1CCN(Cc2ccco2)CC1`, the cell number change is -12.4%. The AC50 under setting [1] was 29.1 µM [falling, single point].
In the case of `Cc1ccc(OCC(=O)N(c2ccccn2)C2CCCCC2)c(C)c1`, the cell number change was determined as 7.12%. Moreover, the AC50 under setting [1] is 18.4 µM [rising, partial curve, poor fit].
For `CCOC(=O)CSCC(=O)Nc1ccc(S(=O)(=O)N2CCCCC2)cc1`, the cell number change was -0.289%. The AC50 under setting [1] is 32.6 µM [rising, single point].
Consider `Cc1cc2cc(CNC(=O)C(C)Oc3ccccc3)ccc2n1C` (stereo not given), for which the cell number change is 19.2%. Moreover, under setting [1], the AC50 was 4.61 µM [rising, full curve].
`Cc1nc(-c2ccccn2)nc(SCC(=O)N2CCOCC2)c1Cl`: the cell number change was found to be 18.1%. Further, the AC50 under setting [1] was 25.9 µM [rising, single point].
For `Cc1ccc(Oc2ccc(NC(=O)CSc3n[nH]c(N)n3)cc2)cc1`, the cell number change was -1.5%. For the same molecule, the AC50 under setting [2] is 5.17 µM [rising, single point]. Also, the AC50 under setting [1] is 0.82 µM [rising, full curve, poor fit].
Regarding `O=C(CCOc1ccccc1)Nc1ccc(S(=O)(=O)Nc2ncccn2)cc1`, the cell number change is 9.34%. In addition, the half-maximal activity concentration (AC50) under setting [1] is 3.66 µM [rising, partial curve].
Turning to `COC(=O)Cc1[nH]n(-c2nc3ccccc3s2)c(=O)c1C(C)=Nc1ccc(OC)cc1`, the cell number change is -57.7%. In addition, the AC50 under setting [2] was 32.6 µM [falling, partial curve]. In addition, the AC50 under setting [1] was 1.64 µM [falling, partial curve, poor fit].
As to `Cc1cccc2sc(NC(=O)CN(C)S(=O)(=O)c3ccc(Br)s3)nc12`, the cell number change was -1.08%. In addition, under setting [2], the AC50 was 0.184 µM [rising, full curve, poor fit]. Moreover, the AC50 under setting [1] was 4.11 µM [rising, partial curve, poor fit].
As to `CNC(=S)NNc1ccccc1[N+](=O)[O-]`, the cell number change is -18.7%.
For the molecule `CCc1nccn1S(=O)(=O)c1cc(C)c(OC)cc1C`, the cell number change is -43.5%. Moreover, the AC50 under setting [2] was 29.1 µM [falling, single point]. Besides, the AC50 under setting [1] is 0.651 µM [falling, single point].
For the molecule `COC(C(=O)Nc1cccc(F)c1)c1ccccc1` (stereo not given), the cell number change was 4.33%. Also, under setting [1], the AC50 was 0.092 µM [falling, full curve, poor fit].
In the case of `CCOc1cccc(CNc2ccc(O)cc2)c1OCc1ccc(Cl)cc1Cl`, the cell number change was -1.23%. In addition, under setting [1], the AC50 was 25.9 µM [falling, partial curve].
In the case of `COc1cc2[nH]c(C(=O)N3CCc4ccccc43)cc2c(OC)c1OC`, the cell number change amounted to 15%. The AC50 under setting [1] was 4.61 µM [rising, partial curve].
Regarding `Cc1nc2sc3c(NCc4ccco4)ncnc3c2c2c1COC(C)(C)C2`, the cell number change was -11.3%. Also, the AC50 under setting [1] is 14.6 µM [falling, single point].
Turning to `Cc1cc2c(cc1S(=O)(=O)NCCc1ccc(Cl)cc1)OCC(=O)N2`, the cell number change was 0.865%. In addition, the AC50 under setting [1] is 32.6 µM [falling, single point].
In the case of `Cc1ccc(CSc2nnc(-c3cccnc3)o2)cc1`, the cell number change came out at 29.3%. Further, the AC50 under setting [2] is 0.82 µM [rising, full curve, poor fit].
With `CCOC(=O)C1=C(O)c2ccccc2C(=O)/C1=C\c1ccc(CC)cc1`, the cell number change was -103%. Moreover, the AC50 under setting [2] is 10.3 µM [falling, partial curve, poor fit]. In addition, the AC50 under setting [1] was 29.1 µM [falling, single point].
Turning to `CCOc1ccc(-c2csc(NC(=O)C3CCCO3)n2)cc1` (stereo not given), the AC50 under setting [2] was 6.51 µM [rising, single point].
For the molecule `CCOC(=O)c1ccc(NC(=S)NNC(C)(C)C)cc1`, the cell number change amounted to 5.19%. In addition, under setting [1], the AC50 is 0.651 µM [falling, single point].
With `CC(=O)c1ccc(-c2cccs2)s1`, the cell number change is -51.5%.
With `COC(=O)c1nc(NC(=O)c2ccc(Br)cc2)n[nH]1`, the cell number change came to 3.53%. The AC50 under setting [1] was 29.1 µM [rising, single point].
Take `CC1=C(C)/C(=N/OC(=O)c2cccc([N+](=O)[O-])c2)C=CC1=O`: the cell number change is -64.2%. For the same molecule, the AC50 under setting [2] is 13 µM [falling, partial curve]. For the same molecule, the AC50 under setting [1] was 11.6 µM [falling, partial curve].
Regarding `Cc1cc(C)nc(SCC(=O)Nc2ccc(S(=O)(=O)N3CCCCC3)cc2)n1`, the cell number change came to 83.8%. Moreover, the AC50 under setting [2] was 2.91 µM [rising, full curve]. Under setting [1], the AC50 was 0.58 µM [rising, single point].
